The record followed here is article doi:10.1101/2024.02.27.582308.

Results are given in words; binding and its absence hold for the method and conditions named. Binding seen in cells or lysates may run through a third protein. Some binding calls cover weakened binding; strength is not graded here.

Test [1] deals with T1, MTERF3 (human (endogenous in HEK293T)) (UniProt Q96E29).
T1 sequence: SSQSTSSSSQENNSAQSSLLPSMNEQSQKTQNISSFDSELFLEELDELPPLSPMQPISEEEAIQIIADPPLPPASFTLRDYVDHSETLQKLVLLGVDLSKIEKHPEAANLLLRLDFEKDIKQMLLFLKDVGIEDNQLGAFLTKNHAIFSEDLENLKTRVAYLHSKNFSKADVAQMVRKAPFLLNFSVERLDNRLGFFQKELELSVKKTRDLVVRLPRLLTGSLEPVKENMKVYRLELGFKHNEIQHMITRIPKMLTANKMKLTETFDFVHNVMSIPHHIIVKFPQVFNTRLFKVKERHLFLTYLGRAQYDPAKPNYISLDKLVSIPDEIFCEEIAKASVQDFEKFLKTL
Description: thermal proximity coaggregation analysis.

The target in test [2] is T2, COQ6 (human (endogenous in HEK293T)) (UniProt Q9Y2Z9).
T2 sequence: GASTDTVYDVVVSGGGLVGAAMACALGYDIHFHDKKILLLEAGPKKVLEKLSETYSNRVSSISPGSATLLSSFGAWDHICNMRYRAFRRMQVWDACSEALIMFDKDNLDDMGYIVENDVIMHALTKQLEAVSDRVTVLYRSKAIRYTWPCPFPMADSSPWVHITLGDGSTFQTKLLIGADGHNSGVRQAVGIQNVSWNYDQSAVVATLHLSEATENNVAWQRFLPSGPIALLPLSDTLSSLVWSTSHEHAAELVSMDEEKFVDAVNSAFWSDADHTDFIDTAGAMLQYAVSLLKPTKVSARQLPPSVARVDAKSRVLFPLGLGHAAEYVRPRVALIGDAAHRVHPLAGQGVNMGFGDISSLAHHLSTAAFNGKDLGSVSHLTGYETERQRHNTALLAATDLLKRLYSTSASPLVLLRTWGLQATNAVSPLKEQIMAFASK
Description: thermal proximity coaggregation analysis.

B1: TRUB2 (protein, UniProt O95900 11-331)
chain: GLFAVYKPPGLKWKHLRDTVELQLLKGLNARKPPAPKQRVRFLLGPMEGSEEKELTLTATSVPSFINHPLVCGPAFAHLKVGVGHRLDAQASGVLVLGVGHGCRLLTDMYNAHLTKDYTVRGLLGKATDDFREDGRLVEKTTYDHVTREKLDRILAVIQGSHQKALVMYSNLDLKTQEAYEMAVRGLIRPMNKSPMLITGIRCLYFAPPEFLLEVQCMHETQKELRKLVHEIGLELKTTAVCTQVRRTRDGFFTLDSALLRTQWDLTNIQDAIRAATPQVAAELEKSLSPGLDTKQLPSPGWSWDSQGPSSTLGLERGAGQ
For the molecule B1, the binding result in test [1] is “binds”.

B2: COQ3 (protein, UniProt Q9NZJ6 86-369)
chain: STSQTTVDSGEVKTFLALAHKWWDEQGVYAPLHSMNDLRVPFIRDNLLKTIPNHQPGKPLLGMKILDVGCGGGLLTEPLGRLGASVIGIDPVDENIKTAQCHKSFDPVLDKRIEYRVCSLEEIVEETAETFDAVVASEVVEHVIDLETFLQCCCQVLKPGGSLFITTINKTQLSYALGIVFSEQIASIVPKGTHTWEKFVSPETLESILESNGLSVQTVVGMLYNPFSGYWHWSENTSLNYAAYAVKSRVQEHPASAEFVLKGETEELQANACTNPAVHEKLKK
For B2, the binding entry in test [2] is reported as “binds”.
